Measured values taken from the supplement of paper PMC6411743.
± gives the standard deviation of the averaged measurements. The list shows a part of the results.

Protein sequences, listed by entry. Tags and fused reporters are not part of them. Lines headed by an entry give the natural chain unless they say otherwise; changes in a name come on top.
UniProt Q15311: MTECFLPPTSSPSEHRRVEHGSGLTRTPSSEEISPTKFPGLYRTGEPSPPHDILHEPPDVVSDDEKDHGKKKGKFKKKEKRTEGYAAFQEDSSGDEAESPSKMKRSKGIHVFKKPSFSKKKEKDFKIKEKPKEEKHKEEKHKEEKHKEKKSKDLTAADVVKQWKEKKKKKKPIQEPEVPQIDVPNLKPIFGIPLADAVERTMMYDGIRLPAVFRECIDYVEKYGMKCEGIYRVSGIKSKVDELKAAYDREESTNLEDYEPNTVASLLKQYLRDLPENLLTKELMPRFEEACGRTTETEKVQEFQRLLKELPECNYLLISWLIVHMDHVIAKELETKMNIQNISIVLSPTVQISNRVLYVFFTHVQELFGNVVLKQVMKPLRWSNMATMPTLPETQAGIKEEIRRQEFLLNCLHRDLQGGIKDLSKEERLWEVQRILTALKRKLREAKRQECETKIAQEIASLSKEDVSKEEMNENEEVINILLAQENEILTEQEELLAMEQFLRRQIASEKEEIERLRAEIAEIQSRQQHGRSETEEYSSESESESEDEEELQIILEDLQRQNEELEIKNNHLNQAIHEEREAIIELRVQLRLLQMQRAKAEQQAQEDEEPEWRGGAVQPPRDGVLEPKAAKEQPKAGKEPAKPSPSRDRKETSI
UniProt Q4V328: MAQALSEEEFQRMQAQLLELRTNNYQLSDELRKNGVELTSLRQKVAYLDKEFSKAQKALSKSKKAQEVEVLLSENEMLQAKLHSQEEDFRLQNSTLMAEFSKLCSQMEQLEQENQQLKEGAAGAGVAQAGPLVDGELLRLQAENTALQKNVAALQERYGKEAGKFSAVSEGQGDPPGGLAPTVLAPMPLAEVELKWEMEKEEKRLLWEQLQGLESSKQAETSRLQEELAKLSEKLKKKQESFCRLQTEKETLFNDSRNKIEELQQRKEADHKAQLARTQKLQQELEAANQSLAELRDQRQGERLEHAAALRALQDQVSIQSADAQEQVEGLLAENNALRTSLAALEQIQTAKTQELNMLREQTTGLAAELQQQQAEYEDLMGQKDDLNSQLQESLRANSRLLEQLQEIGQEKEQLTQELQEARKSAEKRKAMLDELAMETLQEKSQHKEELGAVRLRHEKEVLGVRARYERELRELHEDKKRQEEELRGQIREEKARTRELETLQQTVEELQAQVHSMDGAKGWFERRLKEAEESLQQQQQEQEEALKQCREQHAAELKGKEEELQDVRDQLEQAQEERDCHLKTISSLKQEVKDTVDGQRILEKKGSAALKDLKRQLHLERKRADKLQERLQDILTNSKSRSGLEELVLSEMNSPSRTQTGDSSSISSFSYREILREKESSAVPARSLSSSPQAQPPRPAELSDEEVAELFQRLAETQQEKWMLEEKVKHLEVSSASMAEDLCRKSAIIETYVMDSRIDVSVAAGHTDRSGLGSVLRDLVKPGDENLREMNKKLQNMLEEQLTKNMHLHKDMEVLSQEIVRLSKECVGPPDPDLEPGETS
UniProt Q15208: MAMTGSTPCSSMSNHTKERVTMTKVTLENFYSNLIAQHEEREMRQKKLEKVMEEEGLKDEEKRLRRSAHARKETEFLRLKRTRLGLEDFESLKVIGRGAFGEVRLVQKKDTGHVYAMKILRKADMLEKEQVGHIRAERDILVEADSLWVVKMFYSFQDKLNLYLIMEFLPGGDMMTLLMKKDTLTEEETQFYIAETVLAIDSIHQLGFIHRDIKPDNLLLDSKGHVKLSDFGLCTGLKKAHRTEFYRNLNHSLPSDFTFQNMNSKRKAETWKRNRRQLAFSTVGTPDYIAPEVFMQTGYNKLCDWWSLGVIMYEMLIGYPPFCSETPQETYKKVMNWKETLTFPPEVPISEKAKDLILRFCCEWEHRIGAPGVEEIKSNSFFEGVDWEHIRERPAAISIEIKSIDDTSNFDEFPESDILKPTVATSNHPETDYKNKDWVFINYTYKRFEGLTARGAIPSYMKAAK
UniProt Q49B96: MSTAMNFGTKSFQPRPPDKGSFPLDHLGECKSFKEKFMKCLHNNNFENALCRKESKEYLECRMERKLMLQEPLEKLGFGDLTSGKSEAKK
UniProt Q15643: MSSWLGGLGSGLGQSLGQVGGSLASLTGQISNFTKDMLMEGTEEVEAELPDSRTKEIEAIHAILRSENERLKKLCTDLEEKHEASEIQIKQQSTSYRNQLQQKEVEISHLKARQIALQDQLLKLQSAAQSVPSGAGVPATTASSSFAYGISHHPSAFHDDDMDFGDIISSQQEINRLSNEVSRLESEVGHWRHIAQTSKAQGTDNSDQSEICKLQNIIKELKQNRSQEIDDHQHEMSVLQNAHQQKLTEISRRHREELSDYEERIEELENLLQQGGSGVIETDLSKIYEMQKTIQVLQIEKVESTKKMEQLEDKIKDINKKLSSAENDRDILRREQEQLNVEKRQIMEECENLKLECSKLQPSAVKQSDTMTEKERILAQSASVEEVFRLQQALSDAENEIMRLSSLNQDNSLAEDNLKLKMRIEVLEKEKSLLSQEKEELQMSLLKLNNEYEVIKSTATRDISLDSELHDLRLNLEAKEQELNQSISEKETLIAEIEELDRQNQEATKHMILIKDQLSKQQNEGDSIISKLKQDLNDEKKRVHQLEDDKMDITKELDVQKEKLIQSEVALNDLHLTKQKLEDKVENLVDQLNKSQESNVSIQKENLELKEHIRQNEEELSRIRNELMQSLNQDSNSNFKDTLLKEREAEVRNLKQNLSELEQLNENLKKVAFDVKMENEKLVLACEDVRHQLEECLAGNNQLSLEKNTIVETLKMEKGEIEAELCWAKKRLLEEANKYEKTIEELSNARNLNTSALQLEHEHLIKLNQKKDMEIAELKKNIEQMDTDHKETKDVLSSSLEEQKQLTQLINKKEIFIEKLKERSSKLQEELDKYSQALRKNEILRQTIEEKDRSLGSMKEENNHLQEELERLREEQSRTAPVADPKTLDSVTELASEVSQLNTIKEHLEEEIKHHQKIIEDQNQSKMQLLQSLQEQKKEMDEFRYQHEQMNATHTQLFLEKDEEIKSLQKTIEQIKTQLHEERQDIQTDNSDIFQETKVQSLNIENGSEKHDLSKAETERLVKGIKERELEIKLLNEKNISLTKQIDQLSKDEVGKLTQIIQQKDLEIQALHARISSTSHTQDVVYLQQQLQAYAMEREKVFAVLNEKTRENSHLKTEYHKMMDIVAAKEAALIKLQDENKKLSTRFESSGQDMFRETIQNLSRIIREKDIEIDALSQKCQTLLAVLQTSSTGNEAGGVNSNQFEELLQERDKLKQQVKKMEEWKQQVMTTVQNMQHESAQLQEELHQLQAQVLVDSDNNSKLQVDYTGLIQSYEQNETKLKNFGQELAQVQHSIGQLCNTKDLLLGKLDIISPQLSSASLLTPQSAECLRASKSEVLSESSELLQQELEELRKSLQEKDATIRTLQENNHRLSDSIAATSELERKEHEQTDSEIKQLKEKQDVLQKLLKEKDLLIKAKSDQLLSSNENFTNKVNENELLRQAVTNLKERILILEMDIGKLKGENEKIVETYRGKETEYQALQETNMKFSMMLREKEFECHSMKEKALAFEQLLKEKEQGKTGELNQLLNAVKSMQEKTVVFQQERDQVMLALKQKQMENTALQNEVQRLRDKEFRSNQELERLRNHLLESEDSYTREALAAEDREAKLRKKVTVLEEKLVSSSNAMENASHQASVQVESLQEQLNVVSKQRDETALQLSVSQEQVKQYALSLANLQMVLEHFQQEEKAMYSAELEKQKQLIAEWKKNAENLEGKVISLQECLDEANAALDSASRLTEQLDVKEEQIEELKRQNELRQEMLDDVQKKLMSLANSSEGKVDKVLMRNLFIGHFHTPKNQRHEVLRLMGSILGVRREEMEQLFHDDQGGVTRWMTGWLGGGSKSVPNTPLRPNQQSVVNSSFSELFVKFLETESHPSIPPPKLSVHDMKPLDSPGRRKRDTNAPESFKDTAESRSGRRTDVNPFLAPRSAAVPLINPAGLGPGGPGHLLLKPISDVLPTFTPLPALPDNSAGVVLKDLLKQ
UniProt Q32P51: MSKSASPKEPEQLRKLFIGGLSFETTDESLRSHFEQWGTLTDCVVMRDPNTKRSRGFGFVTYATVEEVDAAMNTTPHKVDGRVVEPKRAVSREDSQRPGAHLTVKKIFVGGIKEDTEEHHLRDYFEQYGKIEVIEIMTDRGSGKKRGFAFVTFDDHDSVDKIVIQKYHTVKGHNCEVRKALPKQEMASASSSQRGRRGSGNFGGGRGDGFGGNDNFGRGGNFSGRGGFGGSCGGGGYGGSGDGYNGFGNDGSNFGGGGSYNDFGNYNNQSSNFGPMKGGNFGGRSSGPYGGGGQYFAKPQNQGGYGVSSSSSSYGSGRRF
UniProt Q14974, whole entry: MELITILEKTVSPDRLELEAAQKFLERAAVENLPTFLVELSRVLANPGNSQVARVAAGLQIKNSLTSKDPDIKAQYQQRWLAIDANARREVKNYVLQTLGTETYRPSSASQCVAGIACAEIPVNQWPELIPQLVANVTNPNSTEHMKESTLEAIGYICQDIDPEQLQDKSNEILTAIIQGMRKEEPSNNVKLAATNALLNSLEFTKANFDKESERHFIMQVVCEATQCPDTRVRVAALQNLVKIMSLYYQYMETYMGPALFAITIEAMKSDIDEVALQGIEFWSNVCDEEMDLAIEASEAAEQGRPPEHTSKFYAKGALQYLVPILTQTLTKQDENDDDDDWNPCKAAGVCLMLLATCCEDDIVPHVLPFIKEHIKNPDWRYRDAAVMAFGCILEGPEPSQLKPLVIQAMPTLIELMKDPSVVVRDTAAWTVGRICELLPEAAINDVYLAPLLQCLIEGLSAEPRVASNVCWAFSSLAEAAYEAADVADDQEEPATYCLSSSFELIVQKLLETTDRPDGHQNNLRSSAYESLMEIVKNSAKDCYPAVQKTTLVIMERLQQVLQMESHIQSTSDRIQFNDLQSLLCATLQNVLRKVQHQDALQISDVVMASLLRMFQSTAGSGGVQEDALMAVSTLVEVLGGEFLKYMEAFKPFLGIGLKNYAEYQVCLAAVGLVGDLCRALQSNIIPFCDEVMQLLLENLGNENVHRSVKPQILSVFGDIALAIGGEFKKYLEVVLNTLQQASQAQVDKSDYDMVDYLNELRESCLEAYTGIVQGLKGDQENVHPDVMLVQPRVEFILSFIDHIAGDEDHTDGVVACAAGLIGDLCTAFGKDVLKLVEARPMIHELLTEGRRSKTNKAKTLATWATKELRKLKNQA
UniProt Q15172: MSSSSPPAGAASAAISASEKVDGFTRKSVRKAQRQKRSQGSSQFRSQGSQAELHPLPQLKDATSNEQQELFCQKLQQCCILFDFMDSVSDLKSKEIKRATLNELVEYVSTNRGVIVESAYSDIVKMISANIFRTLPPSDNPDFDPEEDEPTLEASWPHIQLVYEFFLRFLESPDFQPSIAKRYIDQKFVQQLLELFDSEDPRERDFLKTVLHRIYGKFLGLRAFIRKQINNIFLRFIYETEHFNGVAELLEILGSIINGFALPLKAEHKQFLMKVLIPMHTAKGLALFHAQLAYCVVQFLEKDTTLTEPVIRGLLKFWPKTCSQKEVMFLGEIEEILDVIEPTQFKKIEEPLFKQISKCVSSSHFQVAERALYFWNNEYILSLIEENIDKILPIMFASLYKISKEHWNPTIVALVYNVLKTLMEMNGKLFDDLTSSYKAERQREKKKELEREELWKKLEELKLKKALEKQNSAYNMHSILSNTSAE
UniProt Q15542, whole entry: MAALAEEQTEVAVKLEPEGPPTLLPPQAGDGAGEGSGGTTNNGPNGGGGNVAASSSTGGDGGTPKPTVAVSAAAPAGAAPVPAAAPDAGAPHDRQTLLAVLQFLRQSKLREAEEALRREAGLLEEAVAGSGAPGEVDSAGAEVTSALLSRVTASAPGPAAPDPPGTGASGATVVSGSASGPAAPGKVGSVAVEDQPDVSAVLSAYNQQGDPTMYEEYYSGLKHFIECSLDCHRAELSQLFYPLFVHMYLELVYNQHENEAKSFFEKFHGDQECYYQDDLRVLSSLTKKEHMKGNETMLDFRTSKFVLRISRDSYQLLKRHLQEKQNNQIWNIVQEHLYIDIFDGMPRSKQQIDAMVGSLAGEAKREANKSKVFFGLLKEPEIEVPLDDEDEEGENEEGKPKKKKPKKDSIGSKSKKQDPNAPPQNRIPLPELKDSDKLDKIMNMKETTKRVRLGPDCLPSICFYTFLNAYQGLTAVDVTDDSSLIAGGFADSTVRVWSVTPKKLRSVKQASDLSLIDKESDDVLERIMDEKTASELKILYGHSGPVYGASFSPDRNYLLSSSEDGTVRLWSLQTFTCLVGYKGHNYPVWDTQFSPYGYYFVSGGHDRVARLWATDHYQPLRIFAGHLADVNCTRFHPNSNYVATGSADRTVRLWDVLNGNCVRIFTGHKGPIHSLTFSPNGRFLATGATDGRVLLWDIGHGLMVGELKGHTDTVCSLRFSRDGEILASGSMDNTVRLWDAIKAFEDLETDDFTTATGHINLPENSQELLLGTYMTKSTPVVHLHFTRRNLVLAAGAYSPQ

Each target was assayed with Nc1nc2c(ncn2[C@@H]2O[C@H](COP(=O)(O)OP(=O)(O)OP(=O)(O)O)[C@@H](O)[C@H]2O)c(=O)[nH]1 [guanosine triphosphate] (assay: NP40-soluble protein abundance relative to vehicle (solubility fold change) (ratio); higher = more soluble protein in presence of GTP). Details: concentration: 8mM.
How it was run: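 In three independent experiments, Jurkat crude lysate made by Dounce homogenisation was treated for 10 min at room temperature and then 3 min at 37 °C with eight concentrations ranging from 0.1 to 10 mM. It was then solubilised with 0.8% NP40 plus benzonase for 60 min at 4 °C and ultracentrifuged. The supernatant was TMT-labelled for LC-MS/MS, and each value is the fold change against the detergent-processed vehicle for the same replicate, using vsn-normalised intensities.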
With ZNF326 (UniProt Q5BKZ1) the NP40-soluble protein abundance was 1.52 ± 0.31. Work on FKBP15 (UniProt Q5T1M5) yielded an NP40-soluble protein abundance of 1.04 ± 0.071. Target RALBP1 (UniProt Q15311) has an NP40-soluble protein abundance of 1.02 ± 0.028. Target C9orf64 (UniProt Q5T6V5) has an NP40-soluble protein abundance of 0.868 ± 0.054. Target UniProt Q15652 and related entries has an NP40-soluble protein abundance of 1.1 ± 0.023. OCIAD2 (UniProt Q56VL3) was tested, and the NP40-soluble protein abundance was 0.868 ± 0.1. UniProt Q4V328 and related entries showed an NP40-soluble protein abundance of 0.925 ± 0.072. Work on UniProt Q15054 and related entries yielded an NP40-soluble protein abundance of 0.954 ± 0.056. With BRD3 (UniProt Q15059) the NP40-soluble protein abundance was 1.19 ± 0.098. In the case of UniProt Q15329 and related entries, the NP40-soluble protein abundance is reported as 0.905 ± 0.1. UniProt Q15208 was tested, and the NP40-soluble protein abundance was 0.903 ± 0.1. UniProt Q5T3I0 and related entries was tested, and the NP40-soluble protein abundance was 1.46 ± 0.32. IFI16 (UniProt Q16666) gave an NP40-soluble protein abundance of 1.34 ± 0.1. UniProt Q15650 and related entries gave an NP40-soluble protein abundance of 1.23 ± 0.18. COX19 (UniProt Q49B96) was tested, and the NP40-soluble protein abundance was 1.05 ± 0.12. TRIP11 (UniProt Q15643) was tested, and the NP40-soluble protein abundance was 0.995 ± 0.019. UniProt Q15042 gave an NP40-soluble protein abundance of 1.02 ± 0.042. UniProt Q5SWX8 and related entries was tested, and the NP40-soluble protein abundance was 0.939 ± 0.054. PUS10 (UniProt Q3MIT2) showed an NP40-soluble protein abundance of 0.925 ± 0.13. HNRNPA1L2 (UniProt Q32P51) was tested, and the NP40-soluble protein abundance was 1.92 ± 0.8. Target PSME4 (UniProt Q14997) has an NP40-soluble protein abundance of 1.11 ± 0.23. TBC1D10B (UniProt Q4KMP7) showed an NP40-soluble protein abundance of 1.01 ± 0.053. For UniProt Q15438 and related entries, the NP40-soluble protein abundance was 0.946 ± 0.073. Work on KPNB1 (UniProt Q14974) yielded an NP40-soluble protein abundance of 1 ± 0.033. With PPP2R5A (UniProt Q15172) the NP40-soluble protein abundance was 0.862 ± 0.097. For UBAP2 (UniProt Q5T6F2), the NP40-soluble protein abundance was 0.984 ± 0.039. For SF3A1 (UniProt Q15459), the NP40-soluble protein abundance was 1.09 ± 0.084. Work on ADRM1 (UniProt Q16186) yielded an NP40-soluble protein abundance of 1.17 ± 0.14. UniProt Q14687 and related entries gave an NP40-soluble protein abundance of 1.15 ± 0.15. In the case of UniProt Q15542 and related entries, the NP40-soluble protein abundance is reported as 1.21 ± 0.15. SF3A2 (UniProt Q15428) was tested, and the NP40-soluble protein abundance was 1.08 ± 0.043. In the case of UniProt Q15717 and related entries, the NP40-soluble protein abundance is reported as 0.924 ± 0.025. For UniProt Q15853 and related entries, the NP40-soluble protein abundance was 0.947 ± 0.062. UniProt Q52LJ0-2 gave an NP40-soluble protein abundance of 0.944 ± 0.05. UniProt Q15796 and related entries gave an NP40-soluble protein abundance of 0.901 ± 0.054. UniProt Q14694 and related entries gave an NP40-soluble protein abundance of 1.28 ± 0.076. UniProt Q15084 and related entries showed an NP40-soluble protein abundance of 0.854 ± 0.056. UniProt Q15545 and related entries gave an NP40-soluble protein abundance of 1.11 ± 0.11.

Same assay, conditions: concentration: 10mM
In the case of ZNF326 (UniProt Q5BKZ1), the NP40-soluble protein abundance is reported as 1.53 ± 0.3. In the case of FKBP15 (UniProt Q5T1M5), the NP40-soluble protein abundance is reported as 0.995 ± 0.06. RALBP1 (UniProt Q15311) showed an NP40-soluble protein abundance of 0.999 ± 0.045. C9orf64 (UniProt Q5T6V5) was tested, and the NP40-soluble protein abundance was 0.844 ± 0.081. Target UniProt Q15652 and related entries has an NP40-soluble protein abundance of 1.12 ± 0.051. Work on OCIAD2 (UniProt Q56VL3) yielded an NP40-soluble protein abundance of 0.894 ± 0.061. UniProt Q4V328 and related entries gave an NP40-soluble protein abundance of 0.936 ± 0.076. Target UniProt Q15054 and related entries has an NP40-soluble protein abundance of 0.928 ± 0.067. Work on BRD3 (UniProt Q15059) yielded an NP40-soluble protein abundance of 1.21 ± 0.14. In the case of UniProt Q15329 and related entries, the NP40-soluble protein abundance is reported as 0.933 ± 0.092. UniProt Q15208 gave an NP40-soluble protein abundance of 0.875 ± 0.11. For UniProt Q5T3I0 and related entries, the NP40-soluble protein abundance was 1.49 ± 0.22. With IFI16 (UniProt Q16666) the NP40-soluble protein abundance was 1.29 ± 0.063. In the case of UniProt Q15650 and related entries, the NP40-soluble protein abundance is reported as 1.27 ± 0.025. With COX19 (UniProt Q49B96) the NP40-soluble protein abundance was 0.911 ± 0.1. TRIP11 (UniProt Q15643) was tested, and the NP40-soluble protein abundance was 0.978 ± 0.062. Work on UniProt Q15042 yielded an NP40-soluble protein abundance of 0.96 ± 0.021. Target UniProt Q5SWX8 and related entries has an NP40-soluble protein abundance of 0.988 ± 0.074. PUS10 (UniProt Q3MIT2) showed an NP40-soluble protein abundance of 0.878 ± 0.11. For HNRNPA1L2 (UniProt Q32P51), the NP40-soluble protein abundance was 1.58 ± 0.35. Work on PSME4 (UniProt Q14997) yielded an NP40-soluble protein abundance of 1.09 ± 0.23. In the case of TBC1D10B (UniProt Q4KMP7), the NP40-soluble protein abundance is reported as 1.05 ± 0.035. UniProt Q15438 and related entries showed an NP40-soluble protein abundance of 0.924 ± 0.092. KPNB1 (UniProt Q14974) showed an NP40-soluble protein abundance of 0.992 ± 0.028. PPP2R5A (UniProt Q15172) showed an NP40-soluble protein abundance of 0.848 ± 0.055. With UBAP2 (UniProt Q5T6F2) the NP40-soluble protein abundance was 1.01 ± 0.079. For SF3A1 (UniProt Q15459), the NP40-soluble protein abundance was 1.07 ± 0.073. In the case of ADRM1 (UniProt Q16186), the NP40-soluble protein abundance is reported as 1.14 ± 0.19. Target UniProt Q14687 and related entries has an NP40-soluble protein abundance of 1.18 ± 0.14. UniProt Q15542 and related entries was tested, and the NP40-soluble protein abundance was 1.31 ± 0.17. With SF3A2 (UniProt Q15428) the NP40-soluble protein abundance was 1.1 ± 0.072. UniProt Q15717 and related entries showed an NP40-soluble protein abundance of 0.92 ± 0.016. Target UniProt Q15853 and related entries has an NP40-soluble protein abundance of 0.926 ± 0.12. With UniProt Q52LJ0-2 the NP40-soluble protein abundance was 0.972 ± 0.042. Work on UniProt Q15796 and related entries yielded an NP40-soluble protein abundance of 0.862 ± 0.029. Work on UniProt Q14694 and related entries yielded an NP40-soluble protein abundance of 1.32 ± 0.078. In the case of UniProt Q15084 and related entries, the NP40-soluble protein abundance is reported as 0.868 ± 0.075. UniProt Q15545 and related entries showed an NP40-soluble protein abundance of 1.21 ± 0.086.
